Values from PubChem BioAssay AID1259254 (NCATS, 2017).
Assay: 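Gene knock-downs that lead to re-replication, shown by excess G2 DNA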 (primary screen). Cells: human HCT116 colorectal cancer cells. Reagent: single siRNA against human genes. Timing: 3 days. Read-out: 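Imaged Hoechst DNA stain sorts each cell into a cycle phase by DNA amount; per plate, G2 fraction set to 0% for non-targeting and 100% for GMNN siRNA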. Reading the numbers: G2 robust z-score: higher = more G2 cells, more excess DNA replication. Call rule: 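Active siRNAs have a G2 robust z of 5 or more median absolute deviations over the median, which in these data means about 38% or higher of GMNN control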.
In all, the deposit lists about 59,000 reagents; below is an unselected part. About 1,550 of them (2.6%) count as active. 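G2 share is only a proxy for re-replication; each gene was hit by three separate siRNAs, and active genes were retested.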 The numbers tell different reagents against one gene apart. Not all columns of the deposit are shown. Reagent sequences are not shown. Not stated in the record: the amount of reagent.

Against C2orf15 #1, the entry reads G2 robust z-score -0.255; inactive.
After knock-down of C2orf15 #2 the results were G2 robust z-score -0.907; inactive.
Knock-down of C2orf15 #3 came out at: G2 robust z-score -0.776; inactive.
For PTMS #1 the deposit lists G2 robust z-score -0.472; inactive.
PTMS #2 scored G2 robust z-score -0.0849; inactive.
Depletion of PTMS #3 resulted in: G2 robust z-score 2.53; inactive.
Against KLHL33 #1 the deposit lists G2 robust z-score -0.983; inactive.
KLHL33 #2 scored G2 robust z-score 2.1; inactive.
Knock-down of KLHL33 #3 resulted in: G2 robust z-score -0.524; inactive.
After knock-down of KLHL33 #4, the screen gave G2 robust z-score 0.0262; inactive.
KLHL33 #5 scored G2 robust z-score 1.83; inactive.
KLHL33 #6 scored G2 robust z-score -0.515; inactive.
SLC35A3 #1 gave G2 robust z-score -0.546; inactive.
SLC35A3 #2 scored G2 robust z-score 1.76; inactive.
For SLC35A3 #3 the deposit lists G2 robust z-score -0.589; inactive.
Depletion of SULT1A2 #1 resulted in: G2 robust z-score 1.03; inactive.
After knock-down of SULT1A2 #2, the record shows G2 robust z-score -0.741; inactive.
Depletion of SULT1A2 #3 came out at: G2 robust z-score -0.986; inactive.

A few values from the list:
PTMS #1, activity call = inactive
Entry for KLHL33 #2 under “activity call”: inactive

The list goes on.
After knock-down of CTU2 #1, the record shows G2 robust z-score -0.0426; inactive.
For CTU2 #2, the entry reads G2 robust z-score -0.752; inactive.
Against CTU2 #3 the deposit lists G2 robust z-score -0.712; inactive.
With knock-down of PRG3 #1, the record shows G2 robust z-score -0.74; inactive.
Depletion of PRG3 #2 resulted in: G2 robust z-score 1.01; inactive.
Knock-down of PRG3 #3 resulted in: G2 robust z-score -0.617; inactive.
For CEACAM5 #1, the values are G2 robust z-score 0.799; inactive.
For CEACAM5 #2 the deposit lists G2 robust z-score -0.707; inactive.
With knock-down of CEACAM5 #3 the results were G2 robust z-score 0.358; inactive.
NPEPL1 #1 scored G2 robust z-score 0.755; inactive.
After knock-down of NPEPL1 #2, the screen gave G2 robust z-score -0.209; inactive.
NPEPL1 #3 gave G2 robust z-score 0.194; inactive.
